These are literature values, as cited in PMC2233905 (The Journal of General Physiology, 2004).

For this series, the system named is native rERG currents in GH3 cells. Conditions: ref Barros et al., 1997; cited from earlier work.

Molecules are shown by their SMILES.

The term IC50 denotes the concentration that gives 50% inhibition. `COc1ccc(CCN2CCC(Nc3nc4ccccc4n3Cc3ccc(F)cc3)CC2)cc1` [astemizole]: the IC50 is about 50 nM.
